The results in this text go back to US4632940A, “N-substituted 1-(4'-alkylsulfonylphenyl)-2-amino-1,3-propanediols, pharmaceutical compositions containing them, having local anesthetic activity” (Zambon S.p.A., priority 1983, dated 1986).

This data set can be described thus: in vivo. The note with it: iv. The text has this:
Toxicity study in mouse has been performed by intravenous administration. The Compounds have been administered as hydrochloride. After treatment the animals have been observed for 24 hrs.
In the same Table is also shown the Therapeutic Index which has been calculated as ratio between DL50 and ED50.

In general, LD50 refers to the dose at which mortality reaches 50%. Where the note is “mouse, administered as hydrochloride, observed for 24 hrs”, `CCN(CC)CC(=O)Nc1c(C)cccc1C` [Lidocaine, reference compound] returned an LD50 at 24 h of 140 µmol/kg. Where the note is “ratio of LD50 (mouse, i.v.) to ED50 (guinea pig local infiltration), read-out: Therapeutic Index LD50/ED50”, the selectivity ratio was 0.28.
